Results on 11 targets are retold here after the supplement of paper PMC12819154, “High-throughput peptide-centric local stability assay extends protein–ligand identification to membrane proteins, tissues and bacteria” (Nature Structural & Molecular Biology, 2025).

The chains behind the UniProt entries cited, without tags or fusion partners. Where a name states a change or a piece, a line headed by the entry shows the natural chain unless it says otherwise.
UniProt P97364, whole entry: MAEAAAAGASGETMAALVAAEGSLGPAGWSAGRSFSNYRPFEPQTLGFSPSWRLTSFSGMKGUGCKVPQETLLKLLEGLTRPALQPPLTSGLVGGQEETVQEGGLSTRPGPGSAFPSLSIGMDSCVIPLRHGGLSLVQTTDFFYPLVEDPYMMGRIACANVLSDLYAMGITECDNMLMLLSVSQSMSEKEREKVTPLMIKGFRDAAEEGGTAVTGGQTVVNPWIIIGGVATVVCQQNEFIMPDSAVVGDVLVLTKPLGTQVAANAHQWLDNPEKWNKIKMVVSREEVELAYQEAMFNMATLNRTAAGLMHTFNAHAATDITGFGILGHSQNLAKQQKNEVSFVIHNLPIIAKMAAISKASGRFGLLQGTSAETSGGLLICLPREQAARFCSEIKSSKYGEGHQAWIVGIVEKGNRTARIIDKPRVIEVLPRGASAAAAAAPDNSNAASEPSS
UniProt P98083: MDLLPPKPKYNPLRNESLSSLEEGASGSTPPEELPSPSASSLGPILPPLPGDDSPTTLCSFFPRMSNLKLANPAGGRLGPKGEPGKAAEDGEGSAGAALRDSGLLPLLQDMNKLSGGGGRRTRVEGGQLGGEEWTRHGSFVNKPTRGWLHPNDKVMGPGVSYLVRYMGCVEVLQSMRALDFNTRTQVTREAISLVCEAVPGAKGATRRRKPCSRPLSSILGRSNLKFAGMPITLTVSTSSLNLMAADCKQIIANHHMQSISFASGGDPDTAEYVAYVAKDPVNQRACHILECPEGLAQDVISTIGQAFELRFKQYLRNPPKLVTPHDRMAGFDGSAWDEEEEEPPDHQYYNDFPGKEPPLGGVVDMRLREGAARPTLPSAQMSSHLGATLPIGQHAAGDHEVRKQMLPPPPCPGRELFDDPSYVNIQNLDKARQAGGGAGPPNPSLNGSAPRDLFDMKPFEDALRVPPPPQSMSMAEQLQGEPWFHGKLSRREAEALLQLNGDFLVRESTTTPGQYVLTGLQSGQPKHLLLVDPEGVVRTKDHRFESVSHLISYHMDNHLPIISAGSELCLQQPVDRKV
UniProt P70340: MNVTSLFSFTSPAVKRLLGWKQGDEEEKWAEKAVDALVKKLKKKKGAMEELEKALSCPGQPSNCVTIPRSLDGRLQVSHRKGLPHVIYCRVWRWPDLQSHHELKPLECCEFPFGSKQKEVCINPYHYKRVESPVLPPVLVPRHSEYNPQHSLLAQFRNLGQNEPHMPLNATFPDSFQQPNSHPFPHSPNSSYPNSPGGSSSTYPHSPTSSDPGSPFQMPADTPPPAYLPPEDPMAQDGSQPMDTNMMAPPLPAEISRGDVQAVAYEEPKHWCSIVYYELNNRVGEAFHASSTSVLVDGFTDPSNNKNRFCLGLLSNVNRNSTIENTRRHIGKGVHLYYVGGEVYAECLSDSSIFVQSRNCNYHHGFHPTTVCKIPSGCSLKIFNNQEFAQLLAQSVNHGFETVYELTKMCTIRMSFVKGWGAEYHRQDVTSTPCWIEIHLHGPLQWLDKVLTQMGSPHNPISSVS
UniProt P97714, whole entry: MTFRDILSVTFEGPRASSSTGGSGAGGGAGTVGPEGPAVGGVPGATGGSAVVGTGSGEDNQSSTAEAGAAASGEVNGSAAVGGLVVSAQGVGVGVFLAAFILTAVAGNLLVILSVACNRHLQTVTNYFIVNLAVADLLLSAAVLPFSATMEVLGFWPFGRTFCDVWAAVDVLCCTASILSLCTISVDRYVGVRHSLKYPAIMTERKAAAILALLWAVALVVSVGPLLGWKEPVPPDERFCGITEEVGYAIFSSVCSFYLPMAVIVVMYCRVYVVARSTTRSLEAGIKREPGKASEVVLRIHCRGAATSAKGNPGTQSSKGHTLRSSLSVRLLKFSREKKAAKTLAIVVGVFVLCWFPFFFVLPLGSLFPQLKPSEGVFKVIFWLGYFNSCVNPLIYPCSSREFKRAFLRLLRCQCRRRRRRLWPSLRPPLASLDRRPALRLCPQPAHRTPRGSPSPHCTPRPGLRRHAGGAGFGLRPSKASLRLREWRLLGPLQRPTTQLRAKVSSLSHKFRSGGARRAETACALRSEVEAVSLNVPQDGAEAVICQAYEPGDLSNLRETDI
UniProt P97450: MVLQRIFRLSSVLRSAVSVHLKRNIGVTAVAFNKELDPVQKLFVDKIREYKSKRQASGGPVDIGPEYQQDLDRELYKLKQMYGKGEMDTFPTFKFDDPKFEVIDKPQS
UniProt P97386: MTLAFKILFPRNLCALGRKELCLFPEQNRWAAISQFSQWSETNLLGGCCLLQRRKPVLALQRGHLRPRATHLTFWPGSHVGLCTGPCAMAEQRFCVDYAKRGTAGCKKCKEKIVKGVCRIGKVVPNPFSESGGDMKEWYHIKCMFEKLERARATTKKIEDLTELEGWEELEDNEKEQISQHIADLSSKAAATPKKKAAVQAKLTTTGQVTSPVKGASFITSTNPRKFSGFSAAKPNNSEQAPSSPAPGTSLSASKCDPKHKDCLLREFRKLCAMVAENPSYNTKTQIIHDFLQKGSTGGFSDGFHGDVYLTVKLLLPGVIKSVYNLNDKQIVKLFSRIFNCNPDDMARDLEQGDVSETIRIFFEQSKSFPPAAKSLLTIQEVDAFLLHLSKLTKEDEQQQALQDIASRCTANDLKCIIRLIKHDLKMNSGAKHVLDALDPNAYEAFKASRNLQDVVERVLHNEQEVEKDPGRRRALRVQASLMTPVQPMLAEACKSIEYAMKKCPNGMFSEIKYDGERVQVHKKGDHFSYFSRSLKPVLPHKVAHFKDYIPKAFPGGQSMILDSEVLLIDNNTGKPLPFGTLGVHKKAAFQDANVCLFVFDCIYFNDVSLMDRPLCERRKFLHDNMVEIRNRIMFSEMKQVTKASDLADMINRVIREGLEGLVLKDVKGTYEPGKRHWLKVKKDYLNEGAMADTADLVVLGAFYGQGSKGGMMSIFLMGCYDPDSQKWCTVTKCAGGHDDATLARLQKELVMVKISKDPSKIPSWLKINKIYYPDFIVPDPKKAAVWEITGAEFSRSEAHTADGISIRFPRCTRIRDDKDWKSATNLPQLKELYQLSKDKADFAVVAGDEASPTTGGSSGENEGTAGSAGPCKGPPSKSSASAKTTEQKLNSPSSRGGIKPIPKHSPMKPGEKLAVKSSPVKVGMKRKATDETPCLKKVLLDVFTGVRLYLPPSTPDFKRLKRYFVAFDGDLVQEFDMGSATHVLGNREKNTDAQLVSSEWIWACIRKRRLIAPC
UniProt P70671: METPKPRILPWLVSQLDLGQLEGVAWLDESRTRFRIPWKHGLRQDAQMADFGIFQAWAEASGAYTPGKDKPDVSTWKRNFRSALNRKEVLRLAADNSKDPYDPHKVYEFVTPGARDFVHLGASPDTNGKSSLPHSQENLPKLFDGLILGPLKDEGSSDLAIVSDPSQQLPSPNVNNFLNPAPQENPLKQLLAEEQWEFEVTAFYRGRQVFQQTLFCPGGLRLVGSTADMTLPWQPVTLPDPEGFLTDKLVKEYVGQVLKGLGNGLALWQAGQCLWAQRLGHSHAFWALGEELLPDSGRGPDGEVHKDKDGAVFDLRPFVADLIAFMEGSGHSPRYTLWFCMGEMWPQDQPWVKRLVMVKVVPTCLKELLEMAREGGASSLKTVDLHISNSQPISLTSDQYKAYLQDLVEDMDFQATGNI
UniProt P97305: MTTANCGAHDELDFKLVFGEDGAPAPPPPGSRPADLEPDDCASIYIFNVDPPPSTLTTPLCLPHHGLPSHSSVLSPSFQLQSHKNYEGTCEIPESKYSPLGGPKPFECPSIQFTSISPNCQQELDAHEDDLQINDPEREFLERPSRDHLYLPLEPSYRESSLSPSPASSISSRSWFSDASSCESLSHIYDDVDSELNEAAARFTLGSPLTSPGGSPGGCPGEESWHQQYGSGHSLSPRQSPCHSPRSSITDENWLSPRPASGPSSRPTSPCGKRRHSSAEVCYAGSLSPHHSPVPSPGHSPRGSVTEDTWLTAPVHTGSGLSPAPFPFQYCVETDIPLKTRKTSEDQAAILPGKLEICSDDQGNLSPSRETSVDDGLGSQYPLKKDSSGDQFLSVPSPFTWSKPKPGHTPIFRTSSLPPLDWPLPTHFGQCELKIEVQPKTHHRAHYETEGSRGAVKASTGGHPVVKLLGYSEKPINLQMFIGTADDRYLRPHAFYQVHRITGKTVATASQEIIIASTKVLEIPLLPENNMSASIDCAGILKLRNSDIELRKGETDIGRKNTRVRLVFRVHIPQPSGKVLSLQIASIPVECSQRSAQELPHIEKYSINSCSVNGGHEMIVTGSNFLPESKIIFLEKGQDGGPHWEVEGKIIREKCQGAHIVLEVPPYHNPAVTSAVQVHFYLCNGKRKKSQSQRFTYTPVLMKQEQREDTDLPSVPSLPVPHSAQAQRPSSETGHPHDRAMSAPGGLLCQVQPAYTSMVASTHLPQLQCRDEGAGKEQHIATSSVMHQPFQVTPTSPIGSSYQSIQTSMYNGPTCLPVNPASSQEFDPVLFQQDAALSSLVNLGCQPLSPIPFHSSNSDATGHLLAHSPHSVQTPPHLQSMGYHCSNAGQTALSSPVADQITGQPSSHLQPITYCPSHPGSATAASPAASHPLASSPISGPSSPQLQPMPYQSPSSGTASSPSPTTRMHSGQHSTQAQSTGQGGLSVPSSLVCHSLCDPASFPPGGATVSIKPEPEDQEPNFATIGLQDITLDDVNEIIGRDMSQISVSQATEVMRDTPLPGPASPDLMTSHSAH
UniProt P97789: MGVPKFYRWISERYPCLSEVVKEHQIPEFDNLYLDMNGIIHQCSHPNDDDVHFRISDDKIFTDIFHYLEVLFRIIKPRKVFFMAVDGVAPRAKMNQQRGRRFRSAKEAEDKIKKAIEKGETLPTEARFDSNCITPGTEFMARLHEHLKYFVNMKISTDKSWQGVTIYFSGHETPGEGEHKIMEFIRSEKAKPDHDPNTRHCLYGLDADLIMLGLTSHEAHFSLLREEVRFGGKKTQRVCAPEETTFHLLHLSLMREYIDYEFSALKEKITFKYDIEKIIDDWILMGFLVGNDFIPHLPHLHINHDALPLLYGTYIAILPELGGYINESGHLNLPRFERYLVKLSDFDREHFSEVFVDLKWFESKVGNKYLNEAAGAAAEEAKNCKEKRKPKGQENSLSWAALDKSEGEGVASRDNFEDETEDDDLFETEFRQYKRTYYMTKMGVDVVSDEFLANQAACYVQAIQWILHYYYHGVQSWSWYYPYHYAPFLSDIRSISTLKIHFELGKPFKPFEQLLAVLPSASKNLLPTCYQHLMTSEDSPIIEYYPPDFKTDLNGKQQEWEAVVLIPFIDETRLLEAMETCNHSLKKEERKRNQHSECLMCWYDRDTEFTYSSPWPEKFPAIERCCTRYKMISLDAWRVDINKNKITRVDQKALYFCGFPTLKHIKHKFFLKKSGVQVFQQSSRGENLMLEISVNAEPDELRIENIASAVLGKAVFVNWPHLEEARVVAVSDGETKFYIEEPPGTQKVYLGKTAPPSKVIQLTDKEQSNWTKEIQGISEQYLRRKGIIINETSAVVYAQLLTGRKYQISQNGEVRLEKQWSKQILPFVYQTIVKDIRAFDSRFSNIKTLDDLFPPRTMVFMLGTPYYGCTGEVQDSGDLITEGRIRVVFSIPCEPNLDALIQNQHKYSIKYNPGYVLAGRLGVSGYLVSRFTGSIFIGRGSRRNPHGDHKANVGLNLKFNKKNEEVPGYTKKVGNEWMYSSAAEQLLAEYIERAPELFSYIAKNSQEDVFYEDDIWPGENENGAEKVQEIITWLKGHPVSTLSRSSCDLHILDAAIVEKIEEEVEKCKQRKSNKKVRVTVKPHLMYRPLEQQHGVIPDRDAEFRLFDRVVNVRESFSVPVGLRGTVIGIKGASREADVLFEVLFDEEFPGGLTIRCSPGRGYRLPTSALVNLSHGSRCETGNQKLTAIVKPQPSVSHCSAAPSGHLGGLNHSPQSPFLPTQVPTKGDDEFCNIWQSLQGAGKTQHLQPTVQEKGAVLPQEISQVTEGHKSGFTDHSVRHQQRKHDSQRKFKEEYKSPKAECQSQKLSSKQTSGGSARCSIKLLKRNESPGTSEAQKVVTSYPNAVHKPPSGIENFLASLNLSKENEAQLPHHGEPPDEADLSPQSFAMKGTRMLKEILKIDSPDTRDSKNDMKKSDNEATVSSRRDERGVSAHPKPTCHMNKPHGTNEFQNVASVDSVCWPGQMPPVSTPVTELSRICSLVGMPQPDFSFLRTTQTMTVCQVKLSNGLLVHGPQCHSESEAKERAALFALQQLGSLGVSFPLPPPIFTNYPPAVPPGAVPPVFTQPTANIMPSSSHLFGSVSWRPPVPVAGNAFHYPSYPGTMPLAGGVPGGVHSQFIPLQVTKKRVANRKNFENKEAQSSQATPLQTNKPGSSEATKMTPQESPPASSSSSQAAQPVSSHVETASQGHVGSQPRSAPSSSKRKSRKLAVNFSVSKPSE

This is one part of the list. Most entries show no effect beyond the scatter of the controls.

Compound in the assay: CN[C@@H]1C[C@H]2O[C@@](C)([C@@H]1OC)n1c3ccccc3c3c4c(c5c6ccccc6n2c5c31)C(=O)NC4 [staurosporine]
The assay is described as follows: log2 fold change of tryptic peptide abundance, ligand vs vehicle (limited proteolysis) (log2 ratio); higher = more trypsin-susceptible (destabilized). The conditions noted are these: ligand concentration: 20 uM; sample: mouse liver crude lysate; replicate design: treated separately.
Take “UniProt P97364 (peptide sequence: SSKYGEGHQAWIVGIVEKGNR, peptide start residue: 395)”: the log2 fold change is -0.318.
In the case of “UniProt Q01341 (peptide sequence: LHLQHENR, peptide start residue: 327)”, the log2 fold change is -0.389.
“UniProt P98083 (peptide sequence: DLFDMKPFEDALR, peptide start residue: 453)”: the log2 fold change was determined as 0.376.
Regarding “UniProt P70340 (peptide sequence: GDVQAVAYEEPK, peptide start residue: 258)”, the log2 fold change was determined as 0.735.
With “UniProt P97714 (peptide sequence: LLKFSREK, peptide start residue: 331)”, the log2 fold change is -0.0643.
As for “UniProt P97450 (peptide sequence: QMYGKGEMDTFPTFK, peptide start residue: 80)”, the figure is -0.294; as for “UniProt P97386 (peptide sequence: SLKPVLPHK, peptide start residue: 534)”, -0.385.
Then “UniProt P70671 (peptide sequence: VYEFVTPGAR, peptide start residue: 106)”, with 0.133; and “UniProt P97305 (peptide sequence: PASGPSSRPTSPCGK, peptide start residue: 259)”, with 0.421.
As for “UniProt P97789 (peptide sequence: YNPGYVLAGR, peptide start residue: 911)”, the figure is 0.52; as for “UniProt P97431 (peptide sequence: EFNLMYDGTK, peptide start residue: 92)”, -0.303.
